The text below walks through data of PubChem BioAssay AID1508600 (Functional Genomics Laboratory (NCATS/FGL), 2020).

The whole screen tested about 53,000 sequences, of which about 3,700 (7%) were called active.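 Rule for the calls: active = gene knockdowns whose robust z-score for IL-1 alpha signal is at least 2 or at most -2, so actives lie on both sides; inactive = the rest.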 Some of the results follow.

A short description of the assay: Components of the Cytosolic LPS Sensing Pathway: Gene Identification via Genome-wide siRNA Screen.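 Note: robust z of the log signal after scaling to non-targeting control siRNA wells of the plate.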 The note with it: RAW264.7 macrophages, IL-1a HTRF, actives lie on both sides, screened at 100 nM (by protocol), cells primed 5 h with Pam3CSK4 first. In short, it runs like this:
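Supernatant IL-1a by HTRF from RAW264.7 cells primed with Pam3CSK4 (5 hours) and transfected with LipidA (24 hour) after 48h siRNA knockdown at 100 nM; cell viability checked with CellTiter-Glo.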
For orientation: In TR-FRET formats the signal depends on donor and acceptor labels being close together.
For UGAGGAGACUAUUUAUUAGTT against Olfr1318, the z-score was inactive: -1.57. Under GGAAGACAUACUGUUGAAATT against Mettl23 stands inactive: -0.147; under GGAUAUACACAACAGGCACTT against Tceal9, inactive: 0.422. Under GCCGGAUGAAAUAACCAAATT against Gid8 stands inactive: -0.395; under GCUAGGUUCCAGCAAUUGCTT against Klf17, inactive: 1.51.

On to GGUUUGAUCUCAUUUUCCUTT against Mcm4, for which the z-score was active: 2.92. The result for GGAGCAGAGGCCAUGAGAATT against Pik3r4 reads inactive: 0.191; that for “GCUUUUGGACUGAAUCUCATT against 2210016L21Rik”, active: 2.78. The result for GGCCUUGGAGUAGCUUUGATT against Ints2 reads inactive: 1.68. As for GCAAGCUAUGGUACGCAGATT against Dapk2, the z-score is inactive: 0.489. In the case of GCACAGCUUUUUGGAUCUGTT against Zfyve26, the z-score is inactive: -0.75. Under GCUGAAGUGUGUCACACGUTT against Rtf2 stands inactive: -0.134; under CCAUUUAAUCUGGCAGAGCTT against Kif11, inactive: -0.651; under GCAGGACAAGGACAACACUTT against Dyrk2, active: -2.1. For the sequence CGCAGAUGUGUUAACUAAATT against Mid1ip1, the z-score was inactive: 1.14. GGCUCGGCUUUUGACACAUTT against Ormdl2: the z-score was inactive: 0.176.

Take GGUGGAUUUCUGUAAAUUCTT against Gm20735: the z-score is inactive: -0.302. Under GAUUACUCCACCUAUCUCUTT against Rtl6 stands inactive: 0.646.

Turning to GGAUAAUGCUCCAUCAUAGTT against Nab1, the z-score is inactive: -0.419. The result for GGACCUCUAAAAGGAAAAUTT against Tdrd7 reads inactive: -1.35.

As to GCCUAAGUUCCCUUAUUAATT against Arfrp1, the z-score is inactive: 0.155.

As for GGGUGUCCACAAAAAUUCATT against Dip2b, the z-score is inactive: 0.909. Under GCUAACACCUCACAUCUGGTT against Adam1a stands inactive: -0.173; under CCAACGCGUGUUAUAUGUGTT against Prep, inactive: 0.907. GCAUCAACUGUUAGUAAAGTT against Agfg1: the z-score is inactive: -0.23. For the sequence GGAAGCCAUCUUUAUCCUGTT against Pole4, the z-score was inactive: -1.33.

With GGCAGCAAAGUCAAGAUGUTT against Msgn1, the z-score was inactive: -1.82. Turning to CGAUGGGACCAAGAUUAGUTT against Vstm2a, the z-score was inactive: 0.277. Regarding GGGUUAAUGCAUCAUUUGATT against Mef2d, the z-score is inactive: 0.681. For GCCAUCUGCCAGUAUACAATT against Gm5148, the z-score is inactive: -0.726.
